The nature of the data set: peptide synthesis. To be noted: whole synthesis.

Experimental findings from paper PMC4195615 (PLoS ONE, 2014) are described below.

Regarding “NH2-KWKVFKKIEK-KWKVFKKIEK-AGP-KWKVFKKIEK-COOH”, the “final purity (method not given)” value is recorded as “about 96%”.
